## Results of single-concentration screens

Amino acid sequences for entries named in this document (tags omitted). Residues count along the entry.
UniProt A4I591, 1-473: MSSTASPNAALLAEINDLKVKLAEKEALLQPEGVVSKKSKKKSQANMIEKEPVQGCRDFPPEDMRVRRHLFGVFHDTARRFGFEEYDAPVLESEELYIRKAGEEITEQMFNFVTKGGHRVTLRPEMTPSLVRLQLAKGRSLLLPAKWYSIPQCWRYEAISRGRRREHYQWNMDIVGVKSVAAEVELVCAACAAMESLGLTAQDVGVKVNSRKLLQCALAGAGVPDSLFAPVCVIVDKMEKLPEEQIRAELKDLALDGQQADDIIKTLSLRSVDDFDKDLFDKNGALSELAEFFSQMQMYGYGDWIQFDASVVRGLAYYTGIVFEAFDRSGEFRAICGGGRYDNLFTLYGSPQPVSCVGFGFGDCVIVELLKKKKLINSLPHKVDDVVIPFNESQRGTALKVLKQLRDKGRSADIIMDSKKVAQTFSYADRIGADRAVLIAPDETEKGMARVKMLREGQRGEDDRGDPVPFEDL
UniProt P9WPC5, whole entry: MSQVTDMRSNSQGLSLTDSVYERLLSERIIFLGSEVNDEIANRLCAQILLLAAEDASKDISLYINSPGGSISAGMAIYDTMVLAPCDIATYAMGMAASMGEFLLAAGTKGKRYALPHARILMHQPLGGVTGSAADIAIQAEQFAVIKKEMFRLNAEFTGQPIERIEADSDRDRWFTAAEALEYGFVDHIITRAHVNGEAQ
UniProt P9WPC3, whole entry partner: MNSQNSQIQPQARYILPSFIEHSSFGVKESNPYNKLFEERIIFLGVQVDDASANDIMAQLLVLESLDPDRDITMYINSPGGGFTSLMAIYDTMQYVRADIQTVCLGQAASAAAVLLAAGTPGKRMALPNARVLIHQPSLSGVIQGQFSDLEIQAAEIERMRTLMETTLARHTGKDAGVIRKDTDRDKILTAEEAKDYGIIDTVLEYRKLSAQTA
UniProt Q4DA54, 1-478: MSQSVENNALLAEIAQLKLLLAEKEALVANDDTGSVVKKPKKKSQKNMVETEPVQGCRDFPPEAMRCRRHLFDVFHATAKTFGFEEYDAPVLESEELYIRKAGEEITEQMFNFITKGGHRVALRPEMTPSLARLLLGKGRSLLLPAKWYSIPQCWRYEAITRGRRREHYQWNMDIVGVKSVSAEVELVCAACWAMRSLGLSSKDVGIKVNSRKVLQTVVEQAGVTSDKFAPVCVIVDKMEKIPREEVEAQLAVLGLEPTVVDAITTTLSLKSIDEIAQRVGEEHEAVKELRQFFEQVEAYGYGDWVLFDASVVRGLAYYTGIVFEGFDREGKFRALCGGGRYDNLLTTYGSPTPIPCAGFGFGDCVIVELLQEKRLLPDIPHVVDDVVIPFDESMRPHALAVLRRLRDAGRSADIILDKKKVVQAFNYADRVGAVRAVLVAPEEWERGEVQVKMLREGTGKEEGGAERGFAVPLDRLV

The values are deposited in ChEMBL (CHEMBL3988442, “University of Dundee, Small-Polar-MMV Screening Library” (2021)).

Results are given as percent effect. How 0% and 100% were set is not recorded. Most values in the screen are low, and negative values occur. Compounds were drawn at random from those tested, without regard to their results. A dash means the value is not listed here; it may have been measured.

Toxoplasma: 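Assay of Toxoplasma gondii numbers, read through their beta-galactosidase reporter with a colour substrate. Tested at 10 µM. Higher reads as fewer parasites (inferred from which compounds were picked for retests). Of about 67,000 compounds tested this way, about 260 (0.38%) reached 50% or more in at least one test.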
T. brucei: 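Whole-parasite assay of Trypanosoma brucei over 72 hours; the read-out is not stated. Tested at 30 µM. Higher reads as stronger inhibition (inferred: compounds with an IC50 in retests scored well above the rest). Values scatter widely below zero; nearly all retest evidence comes from the higher of the two concentrations used. About 64,000 compounds were tested under these conditions; 1.5% (about 940) showed 50% or more at least once.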
LiHisRS: 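Histidine-tRNA ligase, Leishmania infantum (UniProt A4I591). Enzyme assay of histidyl-tRNA synthetase; the read-out is not stated. Tested at 30 µM. Direction is inferred from retests: higher values go with stronger inhibition. The assay is labelled LdHisRS but filed under L. infantum. About 69,000 compounds were tested under these conditions; 0.6% (about 410) showed 50% or more at least once.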
ClpP1P2: 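ClpP1P2, Mycobacterium tuberculosis (UniProt P9WPC5 and UniProt P9WPC3). Protease assay of ClpP1P2, read by the AMC dye that it sets free. Concentration: 50 µM. Direction is inferred from only a few compounds that gave an IC50; most scored high, so higher reads as stronger inhibition. Most other retested compounds had strongly negative values. Size under these conditions: about 69,000 compounds, about 10 of them at 50% or above in at least one test.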
TcHisRS: 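Enzyme assay of histidyl-tRNA synthetase; the read-out is not stated. Target: Histidine-tRNA ligase, Trypanosoma cruzi CL Brener (UniProt Q4DA54). Concentration: 30 µM. Direction is inferred from retests: higher values go with stronger inhibition. About 69,000 compounds were tested under these conditions; 0.045% (about 31) showed 50% or more at least once.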

SMILES | Toxoplasma | T. brucei | LiHisRS | ClpP1P2 | TcHisRS
CC(NC(=O)c1cccs1)C(=O)NCc1ccccn1 (centres undefined) | -46.52% | 12.42% | 12.5% | -18.55% | 4.035%
Fc1cccc(CNCC2OCCc3cn(CC4CCOCC4)nc32)c1.O=C(O)C(F)(F)F (centres undefined) | -9.846% | -7.741% | - | - | -
CC(=O)N1CCCC(C(=O)Nc2ccccc2Cc2ccccc2)C1 (centres undefined) | -1.063% | -8.204% | 14.29% | 3.052% | -1.478%
CC(=O)c1c(F)cccc1N1CCC(CS(N)(=O)=O)CC1 | 13.36% | 43.42% | -1.905% | -2.946% | 5.785%
OC(c1ccccn1)C1CCN(Cc2cc3n(n2)CCCNC3)CC1 (centres undefined) | -4.617% | -26.76% | 15.38% | -5.968% | 3.614%
Cc1ccc(CCC(=O)N2CCn3c(nnc3C(C)C)C2)cc1Cl | 7.278% | -17.31% | 9.783% | -6.521% | 0.9901%
FC(F)(F)c1nnc2n1CCN(c1nc(C3CC3)ns1)C2 | 2.692% | -37.93% | 8.621% | -0.6346% | 4.712%
Cc1ccc(-c2c[nH]c([C@@H]3COCCN3Cc3cccnc3)n2)cc1 | -3.743% | -45.99% | -2.703% | 0.7923% | 3.483%
CCOc1ncccc1CNCc1c(C(C)C)nn(C)c1N(C)C | -1.571% | 3.549% | 14.04% | -2.227% | 2.579%
O=C(O)C(F)(F)F.[H][C@@]12COC[C@]1([H])[C@@H](OCc1cccnc1)CN2C(=O)NC(C)C | -0.5199% | -37.78% | - | - | -
CC(C)(CO)Nc1c(NCc2ccccn2)c(=O)c1=O | -20.08% | -9.972% | 15.79% | -0.5267% | 3.659%
[H][C@@]12COC[C@]1([H])[C@@H](OCC)CN2C(=O)c1ccnnc1 | 2.913% | 14.66% | - | - | -
CCCNC(=O)Nc1cccc2c1CCN(S(C)(=O)=O)C2 | 0.7541% | 18.41% | 25.71% | -6.223% | 6.522%
CN(Cc1nccn1C)C1CCN(CCc2ccccn2)CC1 | 10.43% | -24.8% | 14.55% | 14.36% | 5.848%
CCn1cc(C2=CCN(CCCOc3ccccc3)CC2)cn1 | -0.1815% | -18.98% | 25.71% | 9.206% | 3.896%
Nc1nc(CCC(=O)N2CCOC(CC3CCCCC3)C2)cs1 (centres undefined) | 2.39% | 38.29% | 15.24% | 1.21% | 13.22%
O=C(c1cc(Cl)c[nH]1)N(CCCO)Cc1cccnc1 | 6.866% | -4.042% | 10% | -6.658% | 4.255%
O=C(NCC(F)(F)C(F)F)c1ccncc1 | 1.646% | -24.88% | -2.857% | -6.759% | 5.102%
CCn1cnnc1CNC(=O)NCC(C(C)C)N1CCC(C)CC1 (centres undefined) | 3.308% | -33.17% | 6.494% | -5.511% | 3.448%
COc1ccc(C2CCCN2c2cnccn2)c(OC)c1 (centres undefined) | -3.299% | -11.94% | 10.42% | -0.07254% | 11.39%
CC(=O)NCc1ccc(S(=O)(=O)NC(=O)c2ccc3c(c2)COC3)s1 | -2.683% | -20.82% | 25.71% | 0.3356% | 10.31%
CC(=O)N1CCCC(c2nc(N(C)C)ncc2-c2cccc(F)c2)C1 (centres undefined) | 13.75% | -4.321% | 15.86% | -4.386% | 9.125%
CCC(=O)N1CC[C@@H]2[C@H](CC1)N(Cc1cccc(C)n1)CCS2(=O)=O | - | - | 19.3% | 5.805% | 7.527%
CCOc1nc2cnccc2n(CC(=O)NCc2ccc(C)cc2)c1=O | 5.722% | -37.11% | 8.989% | 8.371% | 7.538%
CN1C(=O)CCC12CCN(c1ccc(C#N)cn1)CC2 | - | - | 9.901% | -5.51% | 4.523%
CC(Cc1ccco1)NC(=O)NCc1ncnn1C (centres undefined) | -5.293% | -42.5% | 10% | 18.21% | 7.955%
Cc1cn2nc(N3CCCC3Cn3cncn3)sc2n1 (centres undefined) | 4.826% | -18.78% | 9.434% | -11.79% | 0.8333%
CN(C)C(c1ccccn1)[C@H]1CC[C@H](CNC(=O)C2CC2)CC1 (some centres undefined) | 7.746% | -6.064% | 15.6% | -1.194% | 9.302%
O=C(c1ccon1)N1CCCC(n2cncn2)C1 (centres undefined) | -0.8607% | -2.456% | 13.89% | -18.42% | 6.158%
CCc1c(C)nn2c(O)cc(C3CCN(C(=O)C4CC4)C3)nc12 (centres undefined) | 30.52% | 6.164% | 21.13% | -6.994% | 4.545%
CC(C)NC(=O)N1CCOC2(CCCN(c3ncccc3F)C2)C1.O=C(O)C(F)(F)F (centres undefined) | -12.51% | -41.85% | - | - | -
[H][C@@]12C[C@H](C(=O)Nc3cccnc3)[C@@]([H])(CN(S(=O)(=O)CCC)C1)O2 | 10.28% | -819.3% | - | - | -
O=C(O)C(F)(F)F.[H][C@@]12OCCN(C(=O)CCc3ccccc3)[C@@]1([H])CC[C@H]2OCCN(C)C | 1.923% | -59.4% | - | - | -
CSC1(CNC(=O)c2cccc(-n3cccn3)c2)CCOCC1 | 17.14% | -25.58% | 14.29% | 18.22% | 9.901%
O=S(=O)(c1cccs1)N1CCCCC1c1ccn[nH]1 (centres undefined) | -14.28% | -1.647% | 1.449% | -12.88% | 7.692%
CN(C)CC(c1ccccc1)N(C)C(=O)c1cccc(NCC(=O)O)c1 (centres undefined) | -2.193% | -12.24% | 8.392% | -9.244% | 4.478%
O=C(c1sccc1C1CC1)N1CCCN(c2cccnn2)CC1 | 5.568% | 5.829% | 11.71% | -5.648% | 13.33%
COCCOC[C@]1(CNCc2ccc(OC)cc2)C[C@@H](O)[C@@H](O)C1 | - | - | 27.78% | -3.025% | 4.95%
CC(C)CCC(=O)N1CCCC2(CCN(Cc3ccccc3C#N)C2)C1 (centres undefined) | 22.09% | -32.62% | 19.67% | -4.794% | 12.45%
Cc1ccccc1-c1cc(NC(=O)CC(C)C)n(CCO)n1 | 0.553% | -17.73% | 14.29% | -11.67% | 7.609%
Cc1ccnn1CC(=O)N(C)Cc1ccc(-n2cccn2)cc1 | 7.547% | -7.162% | 16.3% | -5.808% | 4.95%
CCN(CC)CCn1cc(NC2CCN(C(C)(C)C)CC2)cn1 | 11.49% | -32.48% | 16.81% | 6.006% | 3.097%
[H][C@@]12CN(C(=O)NCC)C[C@]1([H])OCC(=O)N2C | 5.677% | -8.924% | - | - | -
COc1c[nH]c(C(=O)N2CCN(c3ccccc3)CC2)cc1=O | -2.915% | 2.637% | 18.68% | 0.923% | 4.124%
CC(C)c1cc(C(=O)N2CCc3ccccc3C2C(=O)O)nn1C (centres undefined) | 2.434% | -2.481% | 2.618% | 2.27% | 3.743%
O=C1N[C@@H]2CCN(C(=O)c3ccccc3)[C@@H]2C(=O)N1c1ccc(F)cc1 | - | - | 22.22% | -2.408% | 0%
Cc1nc(CN(C)C(=O)c2cccc(CC3CCNCC3)c2)no1 | -2.432% | -33.02% | 11.9% | -0.6078% | 4.706%
Cn1nc(-c2cccc(Cl)c2)c(Br)c1C(=O)O | 9.539% | -22.37% | -28.95% | -12.82% | -13.45%
Cc1cc(C(=O)N2CCCC(n3cccn3)C2)c(C)n1C1CC1 (centres undefined) | 20.93% | - | 17.09% | -18.75% | 8.262%
CCOC(=O)N1CCN(CC(=O)Nc2nnc(C)s2)CC1 | 5.681% | -7.225% | -3.125% | 0.4803% | 2.235%
CCN1C[C@H]2C[C@H](C(=O)Nc3ccccc3)[C@@H](C1)O2 | - | - | 8% | -5.715% | 3.922%
Cc1ccc(CN2CCCC3(CCN(Cc4ccoc4)CC3)C2)cc1 | - | - | 23.68% | 19.3% | -4.598%
CN(C)CCNC(=O)c1ccc(S(=O)(=O)N[C@@H]2CCNC2)cc1 | -8.011% | -39.65% | 17.02% | 5.473% | 8.671%